Measurements reported in PubChem BioAssay AID1671195 (Yale University, 2021)
Shown is a random part of about 22,000 reagents tested. About 1,510 of all reagents (6.9%) were called active. 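Active includes knockdowns raising or lowering LDL uptake; positive z-scores mean more uptake, negative mean less.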 Reagent sequences are not shown.

Aim: 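Genes whose knockdown alters LDL uptake in liver cancer cells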 (primary screen)
System: human Huh7 hepatoma cells
Reagent: siRNA pool against human genes, 18 nM
Duration: about 2 to 2.5 days of knockdown, then 8 h LDL uptake
Challenge: DiI-labelled LDL at 30 µg/ml for 8 h, in lipoprotein-deficient serum medium
Measurement: 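Per-cell DiI-LDL intensity by automated imaging; well means scaled to the plate median and given as a robust z-score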
Reading the numbers: robust z-score: higher = more LDL uptake after knockdown
Active means: 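a gene counts as active if at least two replicate z-scores exceed ±2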

Gene | PubChem SID | robust z-score, replicate 1 | robust z-score, replicate 2 | robust z-score, replicate 3 | call
MOBP | SID442899015 | -0.4 | -0.7 | -0.601 | inactive
ZNF146 | SID442892134 | 0.00666 | 0.279 | 0.327 | inactive
STX11 | SID442897324 | -0.354 | -0.151 | -0.614 | inactive
C22orf46P | SID442887181 | 0.777 | 1.12 | 1 | inactive
NCKAP5 | SID442895065 | -0.112 | 0.0382 | -0.315 | inactive
MUC16 | SID442902328 | -0.377 | -1.62 | -1.15 | inactive
CES2 | SID442890852 | -0.46 | 0.688 | 0.86 | inactive
HOMER3 | SID442893732 | -0.57 | 1.36 | -0.741 | inactive
OAZ2 | SID442896448 | 0.201 | -0.458 | -0.567 | inactive
ADAD1 | SID442900779 | -1.1 | -0.931 | -0.388 | inactive
ALG1 | SID442895357 | -0.0675 | 0.222 | -0.641 | inactive
GFM2 | SID442893863 | -0.0503 | -0.197 | 0.257 | inactive

The list goes on, starting with the last 3 of the part before.
Gene | PubChem SID | robust z-score, replicate 1 | robust z-score, replicate 2 | robust z-score, replicate 3 | call
ADAD1 | SID442900779 | -1.1 | -0.931 | -0.388 | inactive
ALG1 | SID442895357 | -0.0675 | 0.222 | -0.641 | inactive
GFM2 | SID442893863 | -0.0503 | -0.197 | 0.257 | inactive
ALOX15 | SID442897235 | -0.51 | -0.615 | 0.0388 | inactive
KRT4 | SID442896109 | -0.313 | -0.224 | -0.181 | inactive
MFSD6 | SID442891237 | 1.45 | 1.08 | -1.59 | inactive
TACO1 | SID442892371 | 0.16 | 1.69 | -1.32 | inactive
TUBA1C | SID442887710 | 2.62 | 0.203 | -0.248 | inactive
ANKRD52 | SID442889788 | 0.286 | 0.539 | 0.704 | inactive
TMEM263 | SID442895081 | 0.0181 | 0.101 | -0.512 | inactive
CCDC158 | SID442884117 | 1.97 | 1.77 | 2.06 | active
SNX24 | SID442895297 | 0.262 | -1.06 | 0.336 | inactive
PGBP | SID442902272 | -0.868 | -1.11 | -1.15 | inactive
WNT3 | SID442902010 | -1.31 | -0.096 | -1.59 | inactive
FBXL8 | SID442890481 | 0.624 | 0.0549 | 0.557 | inactive
COA6 | SID442894669 | 0.241 | -0.318 | -0.189 | inactive
ADAM17 | SID442891647 | 0.22 | 0.3 | 0.263 | inactive
GADD45A | SID442897098 | 0.468 | -1.36 | -0.151 | inactive
C1orf53 | SID442891902 | 0.503 | 0.318 | -0.126 | inactive
